1 sequence from article PMC6532589 can be followed below.

For at least one entry, the source does not settle the construct or the ends of the probe.

This series concerns thrombin (cited studies). Briefly: binding assay. The settings on record: free aptamer, exosite II; PBS (1X: 137 mM NaCl, 2.7 mM KCl, 10 mM Na2HPO4, 1.8 mM KH2PO4, pH 7.4) with 100 uM BSA, 30 min; 100 pM Supra-TBA15/29, thrombin 0-1 nM; temperature not stated; native protein; folded or branched DNA; letters put together from the description.

Take AGTCCGTGGTAGGGCAGGTTGGGGTGACT [TBA29]: the Kd – broadly, a measure of binding affinity in units of concentration – came out at 0.5 nM.
